{"source": "paper PMC4912613", "about": "“A broad analysis of resistance development in the malaria parasite” (Nature Communications, 2016)", "test_system": "PfATP4-Mut3 (PfATP4 F917L, parent 3D7)", "assay": "Cross-resistance EC50 assay, PfATP4-Mut3", "assay_type": "cell-based, Plasmodium falciparum", "conditions": "hypoxanthine 48-hour assay; synchronized parasites; 96-well format; strain PfATP4 Mut3", "text": "To evaluate potential overlapping activity against known antimalarial drug targets, we performed dose-response studies with each compound against our assembled set of drug-resistant lines and their corresponding parents, in an asexual blood stage proliferation assay (Table 1). Comparisons were made to the drug-sensitive strain 3D7 when a parent was unavailable (TM90C2A, W2 and Dd2). As laboratories conducted EC50 assays with different strains and protocols, all comparisons were made between assays from the same laboratory and under the same assay conditions. Compounds displaying >5-fold EC50 shifts relative to the parent or sensitive strain were flagged as having potentially non-novel targets. Average fold shifts per strain ranged from 0.82 to 2.34, with a median of 1.23 indicating there was not common resistance to any one resistant clone. No resistance patterns were observed when classifying the compounds based on chemical structure, but this was not surprising given the diversity of compounds chosen. On the other hand, given that these confirmed compounds were derived from larger unconfirmed hit lists to which some filtration criteria may have been applied (for example, elimination of obvious dihydrofolate reductase inhibitors[32]), some[10][11][12][13] pre-existing bias may exist in the set.\nThe 48-h assay was carried out in a 96-well format following standard methods using the ^3H-hypoxanthine incorporation assay. The raw EC50 values corresponding to this assay can be found in Supplementary Data 3. Briefly, this assay relies on the parasite incorporation of labelled hypoxanthine that is proportional to P. falciparum growth. A culture of parasitized RBCs (0.5% parasitemia with a percentage of ring stage higher than 70% of total parasitemia, 2.0% haematocrit) in RPMI-1640, […] and 5 μM hypoxanthine was exposed to drug serial dilutions. Plates were incubated for 24 h at 37 °C, 5% CO2, 5% O2 and 90% N2. After 24 h of incubation, ^3H-hypoxanthine was added and plates were incubated for an additional 24-h period. After that, parasites were harvested on a glass fibre filter using a TOMTEC Cell Harvester 96. Filters were dried and melt-on scintillator sheets were used to determine the incorporation of ^3H-hypoxanthine. Radioactivity was measured using a microbeta counter. Data were normalized using the incorporation of the positive (parasitized RBCs without drug) and negative (same culture with artesunate at 2 μM) controls. All assays were conducted in triplicate using three independently grown cultures, and EC50 values were determined using the XLfit add-in module for Excel (version 2.3.1) from Grafit (version 5.3.1.3), where parameter h is the assay hill slope, x is the compound concentration and y is the inhibition of growth effect. The XLfit equation is: […]\nAlternatively, a SYBR Green-based proliferation approach was used for the 72-h assay, as previously described. Briefly, a culture of either synchronized or asynchronous parasitized RBCs (0.3% parasitemia and 4% haematocrit) in screening medium (identical to supplemented medium above except no serum was added) was exposed to serial drug dilutions. Plates were incubated at 37 °C and gassed with 93% N2, 4% CO2 and 3% O2 for 72 h. Following incubation, 10 × SYBR Green I (Invitrogen; supplied in 10,000 × concentration) in lysis buffer ([…], 5 mM EDTA, 0.16% Saponin wt per vol and 1.6% Triton X vol per vol) was added to the wells and the plates were incubated overnight at room temperature before plate reading. EC50 assays were repeated three times, taking the average EC50 value from each assay set, and removing any outliers using a single iteration of Grubbs' test, eliminating values with z-scores above the critical z-value (α=0.05). The raw EC50 values for synchronized parasites assayed in a 384-well format are listed in Supplementary Data 4. The raw EC50 values for asynchronous parasites assayed in a 96 or 1536-well format are listed in Supplementary Data 5. […]", "data": [{"smiles": "CN1CCN(c2ccc(Nc3c4ccccc4nc4ccccc34)cc2)CC1", "note": "[MMV006172]", "values": [{"measurement": "PfATP4 Mut3 (3D7-C9-WT Parent) Average Hill Slope", "value": 3.95}]}, {"smiles": "CCCCCCCN(Cc1ccc(OC(C)(C)C(=O)OCC)cc1)C(=O)Nc1ccc(Cl)cc1OCC", "note": "[MMV021735]", "values": [{"measurement": "PfATP4 Mut3 (3D7-C9-WT Parent) Average Hill Slope", "value": 1.31}]}, {"smiles": "c1cc(-c2cnc3ccc(-c4ccc(N5CCOCC5)cc4)nn23)ccn1", "note": "[MMV668311]", "values": [{"measurement": "PfATP4 Mut3 (3D7-C9-WT Parent) Average Hill Slope", "value": 2.56}]}, {"smiles": "COc1ccc2c3c([nH]c2c1)[C@H](CO)N(C(C)=O)CC31CCN(C(=O)Nc2ccccc2F)CC1", "note": "[MMV673482]", "values": [{"measurement": "PfATP4 Mut3 (3D7-C9-WT Parent) Average Hill Slope", "value": 1.13}]}, {"smiles": "Nc1ccc(-c2nc3cc(Cc4ccc5[nH]c(-c6ccc(N)cc6)nc5c4)ccc3[nH]2)cc1", "note": "[MMV665943]", "values": [{"measurement": "PfATP4 Mut3 (3D7-C9-WT Parent) Average Hill Slope", "value": 2.79}]}, {"smiles": "CCOc1cc2c(cc1OCC)C(c1cc(Cl)ccc1O)NCC2", "note": "(centres unmarked) [MMV000478]", "values": [{"measurement": "PfATP4 Mut3 (3D7-C9-WT Parent) Average Hill Slope", "value": 1.41}]}, {"smiles": "CNCc1ccc2nc(-c3coc(Cc4cc(Cl)ccc4OCC(C)C)n3)[nH]c2c1.Cl.Cl", "note": "[MMV026596]", "values": [{"measurement": "PfATP4 Mut3 (3D7-C9-WT Parent) Average Hill Slope", "value": 4.59}]}, {"smiles": "Cl.c1ccc2c(NCCCCCCNc3c4c(nc5ccccc35)CCCC4)c3c(nc2c1)CCCC3", "note": "[MMV019555]", "values": [{"measurement": "PfATP4 Mut3 (3D7-C9-WT Parent) Average Hill Slope", "value": 3.13}]}, {"smiles": "O=C(NC(c1ccccc1)c1ccc2cccnc2c1O)c1ccccc1", "note": "(centres unmarked) [MMV666080]", "values": [{"measurement": "PfATP4 Mut3 (3D7-C9-WT Parent) Average Hill Slope", "value": 0.66}]}, {"smiles": "CN(C)S(=O)(=O)c1cc(-c2ccc3nccc(-c4cccc(S(N)(=O)=O)c4)c3c2)cnc1N", "note": "[MMV024038]", "values": [{"measurement": "PfATP4 Mut3 (3D7-C9-WT Parent) Average Hill Slope", "value": 1.59}]}, {"smiles": "Cc1nc2ccc3ccc(CNc4ccc(C(=O)CC(CCC(=O)O)C(=O)O)cc4)cc3c2c(=O)[nH]1.Cl", "note": "(centres unmarked) [MMV027634]", "values": [{"measurement": "PfATP4 Mut3 (3D7-C9-WT Parent) Average Hill Slope", "value": 1.07}]}, {"smiles": "CCN(CC)CCn1c(=N)n(CC(O)c2ccc(Cl)c(Cl)c2)c2ccccc21.Cl", "note": "(centres unmarked) [MMV000248]", "values": [{"measurement": "PfATP4 Mut3 (3D7-C9-WT Parent) Average Hill Slope", "value": 3.52}]}, {"smiles": "Brc1ccc(Nc2nc3ccccc3nc2Nc2ccc(Br)cc2)cc1", "note": "[MMV007224]", "values": [{"measurement": "PfATP4 Mut3 (3D7-C9-WT Parent) Average Hill Slope", "value": 2.72}]}, {"smiles": "c1cncc(-c2cc(N3CCC(CN4CCOCC4)CC3)nc(-c3ccncc3)n2)c1", "note": "[MMV668399]", "values": [{"measurement": "PfATP4 Mut3 (3D7-C9-WT Parent) Average Hill Slope", "value": 1.62}]}, {"smiles": "COc1ccc(N2CCN(C(CNC(=O)C3CCCCC3)c3ccc4c(c3)OCO4)CC2)cc1", "note": "(centres unmarked) [MMV019662]", "values": [{"measurement": "PfATP4 Mut3 (3D7-C9-WT Parent) Average Hill Slope", "value": 1.61}]}, {"smiles": "OC(CNC1CCCCC1)Cn1c2ccc(I)cc2c2cc(I)ccc21", "note": "(centres unmarked) [MMV665882]", "values": [{"measurement": "PfATP4 Mut3 (3D7-C9-WT Parent) Average Hill Slope", "value": 1.45}]}, {"smiles": "CCC(C)NCC(O)(c1ccc(Cl)cc1)c1ccc(Cl)cc1", "note": "(centres unmarked) [MMV665928]", "values": [{"measurement": "PfATP4 Mut3 (3D7-C9-WT Parent) Average Hill Slope", "value": 2.03}]}, {"smiles": "O=C(NCC(CCCN1CCC(c2c[nH]c3ccccc23)CC1)c1ccccc1)Nc1ccc(Cl)c(Cl)c1", "note": "(centres unmarked) [MMV029272]", "values": [{"measurement": "PfATP4 Mut3 (3D7-C9-WT Parent) Average Hill Slope", "value": 1.46}]}, {"smiles": "COC(=O)c1ccc(C2C3=C(O)CC(c4ccc(F)cc4)CC3=Nc3ccccc3N2C(=O)c2ccccc2)cc1", "note": "(centres unmarked) [MMV011438]", "values": [{"measurement": "PfATP4 Mut3 (3D7-C9-WT Parent) Average Hill Slope", "value": 3.34}]}, {"smiles": "COc1ccc(-c2nc(NC(=O)Cc3ccc4c(c3)OCCO4)sc2C)cc1", "note": "[MMV019719]", "values": [{"measurement": "PfATP4 Mut3 (3D7-C9-WT Parent) Average Hill Slope", "value": 1.60}]}, {"smiles": "COc1ccc(C(=O)C2CC2c2ccc(Cl)cc2)cc1", "note": "(centres unmarked) [MMV665924]", "values": [{"measurement": "PfATP4 Mut3 (3D7-C9-WT Parent) Average Hill Slope", "value": 2.26}]}, {"smiles": "Nc1ncc(-c2cn[nH]c2)cc1-c1nc2ccc(F)cc2[nH]1", "note": "[MMV023367]", "values": [{"measurement": "PfATP4 Mut3 (3D7-C9-WT Parent) Average Hill Slope", "value": 2.82}]}, {"smiles": "Cc1c(C)n(Cc2ccc(F)cc2)c2ccc(C(=O)NCc3ccco3)cc12", "note": "[MMV008149]", "values": [{"measurement": "PfATP4 Mut3 (3D7-C9-WT Parent) Average Hill Slope", "value": 0.73}]}, {"smiles": "CC(C)c1cccc(C(NC(=O)C2Cc3ccccc3CN2C(=O)c2cccc(N3CCOCC3)c2)C2CCCC2)c1", "note": "(centres unmarked) [MMV028038]", "values": [{"measurement": "PfATP4 Mut3 (3D7-C9-WT Parent) Average Hill Slope", "value": 0.92}]}, {"smiles": "O=C(Nc1ccsc1C(=O)NC1CCCCC1)c1ccc(F)cc1", "note": "[MMV665939]", "values": [{"measurement": "PfATP4 Mut3 (3D7-C9-WT Parent) Average Hill Slope", "value": 1.22}]}, {"smiles": "Cc1ccc(Oc2ncccc2C(=O)Cc2cccc3cccnc23)c(C)c1", "note": "[MMV020746]", "values": [{"measurement": "PfATP4 Mut3 (3D7-C9-WT Parent) Average Hill Slope", "value": 1.85}]}, {"smiles": "CN(C)CCCNCc1ccc(-c2ccc(Cl)c(Cl)c2)o1", "note": "[MMV673964]", "values": [{"measurement": "PfATP4 Mut3 (3D7-C9-WT Parent) Average Hill Slope", "value": 3.28}]}, {"smiles": "COc1cc(-c2nc(-c3ccccc3)c(-c3ccccc3)[nH]2)cc(OC)c1O", "note": "[MMV020750]", "values": [{"measurement": "PfATP4 Mut3 (3D7-C9-WT Parent) Average Hill Slope", "value": 1.72}]}, {"smiles": "CC(NCc1ccccc1)c1cc(Cl)ccc1O", "note": "(centres unmarked) [MMV665789]", "values": [{"measurement": "PfATP4 Mut3 (3D7-C9-WT Parent) Average Hill Slope", "value": 2.07}]}, {"smiles": "CCN(CC)S(=O)(=O)c1ccc(-c2csc(Nc3ccc(C)c(C)c3)n2)cc1", "note": "[MMV009108]", "values": [{"measurement": "PfATP4 Mut3 (3D7-C9-WT Parent) Average Hill Slope", "value": 1.09}]}, {"smiles": "CN(C)Cc1ccc(-c2cc3c(-c4ccc(CN(C)C)cc4)ccnc3[nH]2)cc1.O=C(O)C(F)(F)F", "note": "[MMV022224]", "values": [{"measurement": "PfATP4 Mut3 (3D7-C9-WT Parent) Average Hill Slope", "value": 2.47}]}, {"smiles": "CCCOCc1cc(CN2CCN(c3cccc(Cl)c3)CC2)c(O)c2ncccc12", "note": "[MMV000787]", "values": [{"measurement": "PfATP4 Mut3 (3D7-C9-WT Parent) Average Hill Slope", "value": 1.77}]}, {"smiles": "Cc1cc(Nc2ccc(OCc3ccccc3)cc2)nc2cc(O)ccc12", "note": "[MMV007181]", "values": [{"measurement": "PfATP4 Mut3 (3D7-C9-WT Parent) Average Hill Slope", "value": 1.62}]}, {"smiles": "COc1cc(C(=O)ON=C(N)Cc2cccc3ccccc23)cc(OC)c1OC", "note": "[MMV666687]", "values": [{"measurement": "PfATP4 Mut3 (3D7-C9-WT Parent) Average Hill Slope", "value": 1.70}]}, {"smiles": "Cc1ccc(Cn2c(N3CCC(C(=O)NCc4cccs4)CC3)nc3ccccc32)cc1", "note": "[MMV007564]", "values": [{"measurement": "PfATP4 Mut3 (3D7-C9-WT Parent) Average Hill Slope", "value": 1.79}]}, {"smiles": "COc1cc2cc(C(=O)Nc3ccccc3)c(N)nc2cc1OC", "note": "[MMV006767]", "values": [{"measurement": "PfATP4 Mut3 (3D7-C9-WT Parent) Average Hill Slope", "value": 2.98}]}, {"smiles": "CC(C)(C)OC(=O)N1CCN(c2ccccc2NC(=O)c2cccc(C(F)(F)F)c2Oc2ccc(F)cc2)CC1", "note": "[MMV030666]", "values": [{"measurement": "PfATP4 Mut3 (3D7-C9-WT Parent) Average Hill Slope", "value": 1.19}]}, {"smiles": "Cc1ccc(S(=O)(=O)n2cc(-c3ccnc(N)c3)c3cc(Br)cnc32)cc1", "note": "[MMV024114]", "values": [{"measurement": "PfATP4 Mut3 (3D7-C9-WT Parent) Average Hill Slope", "value": 2.38}]}, {"smiles": "COc1ccccc1CNC(=O)CCn1c(=O)[nH]c2ccsc2c1=O", "note": "[MMV019066]", "values": [{"measurement": "PfATP4 Mut3 (3D7-C9-WT Parent) Average Hill Slope", "value": 0.57}]}, {"smiles": "CN(C)CCCN(C)C(=O)C1Cc2cc(-c3ccccc3)ccc2N1S(=O)(=O)c1ccccc1", "note": "(centres unmarked) [MMV028895]", "values": [{"measurement": "PfATP4 Mut3 (3D7-C9-WT Parent) Average Hill Slope", "value": 1.57}]}, {"smiles": "COc1cc(-c2nc(-c3ccccc3)c(-c3ccccc3)[nH]2)ccc1OCCN(C)C", "note": "[MMV027496]", "values": [{"measurement": "PfATP4 Mut3 (3D7-C9-WT Parent) Average Hill Slope", "value": 3.50}]}]}
